Substitutions are numbered along the chain they refer to. These are yes or no findings as the source states them, for the method shown. In cells and extracts the contact can be indirect. Some binding calls cover weakened binding; strength is not graded here. For some assays here: Tags and fused reporters may be left off the sequences shown.
Columns and labels:
Assay in all cases: co-IP; transiently transfected HEK-293T treated with proteasome inhibitor (MG-132) before harvest; NETN lysis; IP 2-4 h at 4°C with M2- or Myc-antibody beads (α-HA IP in Fig 4D); washes in NETN with additional 1% Triton X-100; immunoblot
FLAG-PCAF (human) = FLAG-PCAF (human) (UniProt Q92831)
Myc-NCOA3 (human) = Myc-NCOA3 (human) (UniProt Q9Y6Q9)
Myc-UHRF1^WT (human) = molecular target: T1, Myc-UHRF1^WT (human) (UniProt Q96T88)
T1 sequence: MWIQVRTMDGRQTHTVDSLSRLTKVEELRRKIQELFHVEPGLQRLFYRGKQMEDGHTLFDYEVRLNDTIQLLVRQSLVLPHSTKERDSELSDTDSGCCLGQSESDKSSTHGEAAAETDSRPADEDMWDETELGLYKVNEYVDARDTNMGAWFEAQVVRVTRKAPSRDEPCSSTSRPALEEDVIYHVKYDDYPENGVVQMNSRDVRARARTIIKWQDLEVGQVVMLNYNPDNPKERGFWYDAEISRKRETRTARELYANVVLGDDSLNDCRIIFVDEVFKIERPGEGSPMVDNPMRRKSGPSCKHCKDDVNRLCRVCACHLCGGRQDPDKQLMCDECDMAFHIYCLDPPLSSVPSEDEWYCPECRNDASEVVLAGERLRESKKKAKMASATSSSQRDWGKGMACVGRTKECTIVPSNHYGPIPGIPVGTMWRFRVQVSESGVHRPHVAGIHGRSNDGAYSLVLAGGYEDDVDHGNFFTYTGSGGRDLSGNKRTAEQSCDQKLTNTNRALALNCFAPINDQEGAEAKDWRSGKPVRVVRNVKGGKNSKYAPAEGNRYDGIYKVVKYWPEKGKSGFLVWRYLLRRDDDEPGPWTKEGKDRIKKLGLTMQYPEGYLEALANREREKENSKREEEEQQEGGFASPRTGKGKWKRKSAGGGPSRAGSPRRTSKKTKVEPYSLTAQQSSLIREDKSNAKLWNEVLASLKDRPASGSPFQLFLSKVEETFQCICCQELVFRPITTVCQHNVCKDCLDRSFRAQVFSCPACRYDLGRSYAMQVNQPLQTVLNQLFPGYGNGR

Protein sequences, listed by entry. Tags and fused reporters are not part of them.
UniProt Q92831: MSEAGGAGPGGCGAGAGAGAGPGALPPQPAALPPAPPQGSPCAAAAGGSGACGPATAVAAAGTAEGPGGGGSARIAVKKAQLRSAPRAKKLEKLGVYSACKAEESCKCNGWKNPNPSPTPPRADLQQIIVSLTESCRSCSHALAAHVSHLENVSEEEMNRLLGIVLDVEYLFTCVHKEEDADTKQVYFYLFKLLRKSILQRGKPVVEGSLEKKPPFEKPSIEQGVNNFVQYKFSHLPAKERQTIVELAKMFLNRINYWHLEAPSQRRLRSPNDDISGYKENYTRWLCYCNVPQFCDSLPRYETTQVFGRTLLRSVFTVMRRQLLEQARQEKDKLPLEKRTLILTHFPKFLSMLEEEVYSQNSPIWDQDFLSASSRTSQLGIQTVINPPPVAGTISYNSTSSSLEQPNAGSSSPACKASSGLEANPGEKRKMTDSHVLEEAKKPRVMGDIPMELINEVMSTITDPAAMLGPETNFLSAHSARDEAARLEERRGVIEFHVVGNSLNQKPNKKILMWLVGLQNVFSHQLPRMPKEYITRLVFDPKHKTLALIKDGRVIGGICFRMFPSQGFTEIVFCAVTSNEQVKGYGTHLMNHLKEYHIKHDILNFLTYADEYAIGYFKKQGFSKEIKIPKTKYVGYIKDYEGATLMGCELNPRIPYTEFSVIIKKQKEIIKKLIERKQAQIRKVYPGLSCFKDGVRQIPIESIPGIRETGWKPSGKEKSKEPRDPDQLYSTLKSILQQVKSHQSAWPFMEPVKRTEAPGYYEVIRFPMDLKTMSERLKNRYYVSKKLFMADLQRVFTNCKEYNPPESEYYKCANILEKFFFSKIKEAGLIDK
UniProt Q9Y6Q9: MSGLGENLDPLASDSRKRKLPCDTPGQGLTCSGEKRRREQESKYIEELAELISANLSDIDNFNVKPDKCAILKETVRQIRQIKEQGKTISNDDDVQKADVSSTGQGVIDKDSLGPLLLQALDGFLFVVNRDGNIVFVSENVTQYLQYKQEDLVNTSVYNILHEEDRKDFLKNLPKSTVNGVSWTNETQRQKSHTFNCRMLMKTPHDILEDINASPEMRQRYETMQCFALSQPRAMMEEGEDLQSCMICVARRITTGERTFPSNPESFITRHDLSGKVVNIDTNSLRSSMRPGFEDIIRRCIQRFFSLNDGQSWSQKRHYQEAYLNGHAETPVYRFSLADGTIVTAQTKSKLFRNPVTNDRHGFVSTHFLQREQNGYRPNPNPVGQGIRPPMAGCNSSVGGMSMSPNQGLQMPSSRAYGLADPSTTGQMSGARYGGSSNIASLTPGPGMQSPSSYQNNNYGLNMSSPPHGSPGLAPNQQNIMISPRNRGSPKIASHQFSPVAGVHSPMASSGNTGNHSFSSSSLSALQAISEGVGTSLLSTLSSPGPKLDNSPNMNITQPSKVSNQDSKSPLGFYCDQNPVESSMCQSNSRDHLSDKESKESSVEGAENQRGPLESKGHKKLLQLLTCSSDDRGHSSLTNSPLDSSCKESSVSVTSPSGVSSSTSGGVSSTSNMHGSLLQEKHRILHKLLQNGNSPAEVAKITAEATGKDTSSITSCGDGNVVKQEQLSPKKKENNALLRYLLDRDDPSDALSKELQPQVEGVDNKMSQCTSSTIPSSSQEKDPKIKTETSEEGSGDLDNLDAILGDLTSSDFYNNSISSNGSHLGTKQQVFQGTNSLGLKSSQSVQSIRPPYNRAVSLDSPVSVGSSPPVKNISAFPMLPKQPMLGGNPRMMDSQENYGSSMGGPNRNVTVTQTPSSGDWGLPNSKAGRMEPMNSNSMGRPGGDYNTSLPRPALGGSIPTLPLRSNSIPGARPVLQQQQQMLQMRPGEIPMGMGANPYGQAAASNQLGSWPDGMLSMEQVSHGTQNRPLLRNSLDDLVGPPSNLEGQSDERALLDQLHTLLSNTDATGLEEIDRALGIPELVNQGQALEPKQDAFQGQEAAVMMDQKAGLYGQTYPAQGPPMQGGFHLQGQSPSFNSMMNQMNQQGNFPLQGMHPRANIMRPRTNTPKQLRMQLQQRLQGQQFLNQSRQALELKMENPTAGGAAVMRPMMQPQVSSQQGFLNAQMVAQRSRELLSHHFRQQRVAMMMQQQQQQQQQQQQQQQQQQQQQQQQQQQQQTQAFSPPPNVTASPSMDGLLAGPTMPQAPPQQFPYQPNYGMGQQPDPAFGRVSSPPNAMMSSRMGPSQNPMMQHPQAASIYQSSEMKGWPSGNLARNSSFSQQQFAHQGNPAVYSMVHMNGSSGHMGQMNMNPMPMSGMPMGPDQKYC
UniProt Q9UM11: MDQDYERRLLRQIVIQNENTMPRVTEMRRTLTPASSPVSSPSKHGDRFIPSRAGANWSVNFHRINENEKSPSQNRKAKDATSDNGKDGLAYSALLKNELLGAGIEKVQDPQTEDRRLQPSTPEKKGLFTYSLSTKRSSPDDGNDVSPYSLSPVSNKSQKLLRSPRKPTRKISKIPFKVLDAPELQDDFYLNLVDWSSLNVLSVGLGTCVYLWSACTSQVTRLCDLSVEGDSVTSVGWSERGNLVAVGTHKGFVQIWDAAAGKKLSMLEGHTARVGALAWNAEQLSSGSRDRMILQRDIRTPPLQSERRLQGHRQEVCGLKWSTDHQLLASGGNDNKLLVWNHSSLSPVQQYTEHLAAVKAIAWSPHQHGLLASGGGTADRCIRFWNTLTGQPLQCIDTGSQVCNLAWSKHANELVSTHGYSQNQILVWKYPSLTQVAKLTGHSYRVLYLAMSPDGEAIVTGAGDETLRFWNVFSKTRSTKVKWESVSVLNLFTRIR

[1] = molecular target: T2, Myc-UHRF1^KEN:AAA (human) (UniProt Q96T88)
T2 sequence: T1 sequence with K622A, E623A, N624A

Myc-TTF2 (human) = molecular target: T3, Myc-TTF2 (human) (UniProt Q9UNY4)
T3 sequence: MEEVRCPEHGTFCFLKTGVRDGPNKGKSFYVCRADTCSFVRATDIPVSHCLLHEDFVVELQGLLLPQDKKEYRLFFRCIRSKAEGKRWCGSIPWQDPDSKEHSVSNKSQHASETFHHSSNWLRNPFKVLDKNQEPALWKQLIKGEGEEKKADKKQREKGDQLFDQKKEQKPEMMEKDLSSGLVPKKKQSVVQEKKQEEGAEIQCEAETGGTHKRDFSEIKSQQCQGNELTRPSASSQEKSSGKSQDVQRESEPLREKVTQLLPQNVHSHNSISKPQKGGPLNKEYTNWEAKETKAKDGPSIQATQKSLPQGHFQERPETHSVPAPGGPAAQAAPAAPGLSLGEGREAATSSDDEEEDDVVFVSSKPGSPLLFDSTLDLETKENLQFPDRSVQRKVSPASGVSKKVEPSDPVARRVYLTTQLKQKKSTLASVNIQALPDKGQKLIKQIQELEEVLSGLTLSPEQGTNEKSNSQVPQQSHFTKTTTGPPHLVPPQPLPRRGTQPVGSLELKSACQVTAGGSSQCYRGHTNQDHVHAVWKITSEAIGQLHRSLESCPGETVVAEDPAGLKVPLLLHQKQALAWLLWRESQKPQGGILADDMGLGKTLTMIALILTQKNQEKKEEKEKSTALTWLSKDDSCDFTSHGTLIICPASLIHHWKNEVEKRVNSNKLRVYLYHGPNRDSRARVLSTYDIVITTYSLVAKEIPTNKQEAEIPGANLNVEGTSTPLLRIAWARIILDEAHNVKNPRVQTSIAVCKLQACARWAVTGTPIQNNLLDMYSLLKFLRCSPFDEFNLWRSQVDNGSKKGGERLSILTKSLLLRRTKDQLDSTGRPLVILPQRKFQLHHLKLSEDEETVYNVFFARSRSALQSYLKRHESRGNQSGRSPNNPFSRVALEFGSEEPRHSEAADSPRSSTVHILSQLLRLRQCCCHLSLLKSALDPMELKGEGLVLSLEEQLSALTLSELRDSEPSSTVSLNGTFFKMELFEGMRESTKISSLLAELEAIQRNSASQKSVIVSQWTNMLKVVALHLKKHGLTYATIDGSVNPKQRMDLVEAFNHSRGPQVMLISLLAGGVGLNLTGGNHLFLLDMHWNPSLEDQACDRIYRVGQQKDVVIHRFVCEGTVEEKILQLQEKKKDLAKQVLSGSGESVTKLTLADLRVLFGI

binding (FLAG-PCAF (human)): binds
binding (Myc-NCOA3 (human)): binds
binding (Myc-UHRF1^WT (human)): binds
binding [1]: binds
binding (Myc-TTF2 (human)): binds
Substance: HA-Cdh1 (from UniProt Q9UM11 1-496)

— article PMC7758050
